This is an account of results in the supplement of paper PMC11150407.

SMILES strings stand for the structures. Screen size: about 3,000 compounds; about 45 (2%) showed an effect of 50% or more. Some of the results follow.

The test system of the test is MOLM1 and UCSD/AML1 (averaged). The test is described as follows: cell viability relative to DMSO control (POC); higher = less growth inhibition. Particulars: 1 µM; 72 h. As for the experimental part:
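Primary viability screen in the 3q26 EVI1-high AML cell lines MOLM1 and UCSD/AML1, compounds at 1 uM for 72 h. ATP CellTiter-Glo read-out given as percent viable over DMSO control (POC), averaged over duplicates. This mapping covers the TimTec NDL-3000 natural derivative library, whose compounds are identified by TimTec catalogue codes (ST...).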
As to `COCCOC(=O)c1c(C)n(CCc2cccc3ccccc23)c2c1cc(O)c1ccccc12`, the cell viability was determined as 95.3%. The result for `Cc1oc(-c2ccc(Cl)cc2)nc1CSc1nc2c(=O)[nH]cnc2n1C` reads 88.3%. The result for `Cc1ccc2c(C)cc(=O)[nH]c2c1C` reads 109%; that for `Cn1c(=O)c2c(nc3n2CC(C24CC5CC(CC(C5)C2)C4)=NN3Cc2ccccc2)n(C)c1=O`, 95.7%. In the case of `O=C(CSc1nc2ccccc2c(=O)[nH]1)NCc1nc2ccccc2[nH]1`, the cell viability was 112%.

Take `Cn1c(=O)c2c(nc3n(Cc4ccccn4)c(C45CC6CC(CC(C6)C4)C5)cn23)n(C)c1=O`: the cell viability is 94.8%. The result for `COCCOC(=O)c1c(C)n(-c2ccc(C)cc2)c2c1cc(O)c1ccccc12` reads 105%. As for `COc1ccc(/C=C/C(=O)Nc2cccc(C(C)=O)c2)cc1OC`, the figure is 99.6%. In the case of `COc1cc(C(=O)Nc2ccc3c(c2)NC(=O)C(C)O3)cc(OC)c1OC` (stereo not drawn), the cell viability came out at 94.9%. As for `Cc1ccc2c(c1)c1c(n2C(=O)c2ccnn2C(F)F)CCN(C)C1`, the figure is 101%; as for `CCc1cccc(NC(=O)CSc2nc3c(=O)[nH]cnc3n2-c2ccc(C)cc2)c1`, 89.2%; as for `COc1ccc(OC)c(NC(=O)CSc2nc3ccccc3c(=O)[nH]2)c1`, 91.3%. The result for `COc1cc(/C=C(\C#N)C(=O)OC(C)C)cc(OC)c1` reads 97.3%; that for `Cc1cc2c(c(O)c1-c1c(C)cc3c(c1O)/C(=C/Nc1ccc(S(N)(=O)=O)cc1)C(=O)C(O)=C3C(C)C)/C(=C/Nc1ccc(S(N)(=O)=O)cc1)C(=O)C(O)=C2C(C)C`, 85.3%. The result for `CSCCC(NC(=O)c1cc(-c2ccccc2)oc1C)C(=O)O` (stereo not drawn) reads 85.7%; that for `Cc1c(Cl)cccc1N=Nc1c(C)c(C#N)c(O)n(CCO)c1=O`, 98.3%. For the compound `CC(C)OC(=O)C1=C(N)Oc2c(oc(CO)cc2=O)C1c1ccc(Cl)c(Cl)c1` (stereo not drawn), the cell viability was 106%. Turning to `COc1ccc(CNC(=O)CSc2ncnc3nc[nH]c23)cc1`, the cell viability was 101%. As for `Cc1nc(C(=O)Nc2ccccc2C(=O)O)cc2c1[nH]c1ccccc12`, the figure is 91.4%; as for `Cc1[nH]c2ccc(F)cc2c1CCNC(=O)c1cccc([N+](=O)[O-])c1`, 101%. The result for `Cc1cccc(-c2nc(CSc3nc4c(=O)[nH]c(C)nc4n3C)c(C)o2)c1` reads 99.8%; that for `Cc1cc2c(C(C)C)c(O)c(O)c(C=NCCOc3cccc4cccnc34)c2c(O)c1-c1c(C)cc2c(C(C)C)c(O)c(O)c(C=NCCOc3cccc4cccnc34)c2c1O`, 113%; that for `COc1ccc(N2C3=C(C(=O)CC(C)(C)C3)C(c3ccc(O)cc3)C3=C2CC(C)(C)CC3=O)cc1`, 85.3%. Regarding `Cc1cc(C)c(C(=O)NCC(=O)O)c(C)c1`, the cell viability amounted to 103%. Turning to `O=C(N/N=C/C=C/c1ccc2c(c1)OCO2)c1ccncc1`, the cell viability was 96.8%. On to `CCN(C(=O)CSc1nc2ccccc2c(=O)[nH]1)c1ccc(C(C)C)cc1`, for which the cell viability stood at 97%. As for `COc1cc(/C=C2\N=C(c3ccc(C)cc3)NC2=O)cc(OC)c1OC`, the figure is 105%. With `CCc1cccc2c(CCNC(=O)COc3ccc(F)cc3F)c(C)[nH]c12`, the cell viability was 92.6%. As for `O=C(O)/C=C\C(=O)c1ccccc1`, the figure is 94.7%; as for `O=C(OCC1CCCN2CCCCC12)c1cc2nc(-c3ccccc3)cc(-c3ccccc3)n2n1` (stereo not drawn), 77.9%; as for `CCOc1cc(C(=O)N2CCC3(O)CCCCC3C2c2ccc(OC)cc2OC)cc(OCC)c1OCC` (stereo not drawn), 99.1%. The result for `CCc1ccc2oc(=O)cc(CN3CCC(N4CCCCC4)CC3)c2c1` reads 103%; that for `Cc1ccc(-c2oc3ccccc3c(=O)c2OCC#N)cc1`, 94.9%. For the compound `O=C(CSc1nc(-c2ccc(Cl)cc2)cn1C12CC3CC(CC(C3)C1)C2)c1ccc2c(c1)OCCO2`, the cell viability amounted to 85.2%.

As for `COc1ccc(/C=C/C(=O)Nc2ccc(NC(C)=O)cc2)cc1OC`, the cell viability is 95.3%.

For `CCCCCC1CCC(=O)N1CCN=Cc1c(O)c(O)c(C(C)C)c2cc(C)c(-c3c(C)cc4c(C(C)C)c(O)c(O)c(C=NCCN5C(=O)CCC5CCCCC)c4c3O)c(O)c12` (stereo not drawn), the cell viability worked out at 86.9%. The result for `COC(=O)CC(NC(=O)C1CC(C)CCC1C(C)C)C(=O)OC` (stereo not drawn) reads 81.7%; that for `CCc1[nH]nc2c1C(c1cc(OC)cc(OC)c1)C(C#N)=C(N)O2` (stereo not drawn), 100%; that for `Cc1ccccc1-c1nc(CSc2nc3c(=O)[nH]cnc3n2C)c(C)o1`, 99.5%. Regarding `COc1cc(C2C(C#N)=C(N)OC3=C2C(=O)CC(C)(C)C3)cc2c1OCO2` (stereo not drawn), the cell viability was determined as 105%.

Turning to `CCOc1cc(C(=O)Nc2ccn(C)n2)ccc1OC(F)F`, the cell viability is 87.8%.

Take `Cc1ccn(C)c(=O)c1C#N`: the cell viability turned out to be 107%. As for `O=c1[nH]c(=O)n(C2C[C@H](O)[C@@H](CO)O2)cc1I` (stereo partly drawn), the figure is 89.8%; as for `COCCOC(=O)/C(C#N)=C/c1cc(OC)c(OC)cc1OC`, 84.2%; as for `COc1cc2c(cc1OC)C(c1ccccc1)NCC2` (stereo not drawn), 93.2%. For `COc1cc(-c2cc(-c3ccccc3)c(C#N)c(=O)[nH]2)cc(OC)c1OC`, the cell viability came to 93.2%. `CCOc1ccc2oc(=O)cc(CN(Cc3ccco3)C3CCCC3)c2c1`: the cell viability turned out to be 74%. As to `CC(=O)c1ccc(NC(=O)CSc2nc3c(=O)[nH]cnc3n2-c2ccc(C)cc2)cc1`, the cell viability came to 100%. As for `COc1cc(OC)cc(C(=O)N2CCN(C(=O)c3ccccc3OC)CC2)c1`, the figure is 101%; as for `COc1cc2c(cc1OC)CN(C(=O)CSc1nc3c(c(-c4ccccc4)c1C#N)CCC3)CC2`, 99.6%. For the compound `COc1cccc(/C=C/C(=O)c2ccc3c(c2)OCO3)c1OC`, the cell viability turned out to be 76%.

As for `COc1ccc(OC)c(NC(=O)Cn2c(=O)cc(C(=O)N3CCc4ccccc4C3)c3ccccc32)c1`, the cell viability was 99.2%. As for `COc1ccc(C2Nc3ccccc3NC3=C2C(=O)CC(c2ccccc2Cl)C3)cc1O` (stereo not drawn), the figure is 109%; as for `CC(=O)NCCc1c[nH]c2ccc(OCc3ccccc3)cc12`, 95.3%; as for `COc1ccccc1C1NCCC2(O)CCCCC12` (stereo not drawn), 109%. For the compound `COc1ccc(C(=O)CC2(O)C(=O)N(Cc3cccc4ccccc34)c3ccccc32)cc1OC` (stereo not drawn), the cell viability was 97.5%. Take `COc1ccc(Nc2nc(N3CCN(c4nc(-c5ccc(F)cc5)cs4)CC3)nc3ccccc23)c(OC)c1`: the cell viability came to 91.9%. On to `CC(=O)Nc1ccc(C(=O)NCCc2c[nH]c3ccc(C)cc23)cc1`, for which the cell viability turned out to be 98.4%. As for `CCCCC(NC(=O)c1ccc(Cl)cc1)C(=O)O` (stereo not drawn), the figure is 101%; as for `C[N+]12CCCCC1C(COc1ccccc1Br)CCC2` (stereo not drawn), 96%; as for `CC(C)(C)OC(=O)N1Cc2[nH]c3ccccc3c2C[C@@H]1C(=O)O`, 97.1%. As for `COc1cc(/C=N/NC(=O)C2CC(=O)N(c3ccc(C)cc3)C2)cc(OC)c1OC` (stereo not drawn), the figure is 109%; as for `COc1ccc(-c2cc(=O)c3c(OC)c(OC)c(OC)cc3o2)cc1O`, 93.4%.

Usually cell viability stands for a read-out of living cells in per cent, often relative to untreated cells.
